# Patent US6878804B1 (University of Zurich, priority 1999, dated 2005)
# Test: general procedure: Fmoc solid-phase peptide synthesis; 2-chlorotrityl chloride resin (Polyphor, 1.25 mmol/g); HBTU/HOBt/DIEA; cyclisation HATU/HOAt/DIPEA
# Conditions: whole synthesis, analytical HPLC (Nucleosil 100-5 Protect 1, acetonitrile/water 0.1% TFA)
row,Substance,crude HPLC purity [%]
1,"PEPTIDE1{P.A.I.V.R.K.K.P.A.[dP]}$PEPTIDE1,PEPTIDE1,1:R1-10:R2$$$V2.0",95
2,"PEPTIDE1{P.E.A.V.R.K.K.A.I.[dP]}$PEPTIDE1,PEPTIDE1,1:R1-10:R2$$$V2.0",90

# Some peptides are written in HELM: one residue between dots, names in brackets for other building blocks, links after the first $.
